The experiment has as its target wild-type GFP-tagged human MRCKα (MRCKα-wt-GFP) (human) (UniProt Q5VT25). The experiment in a line: co-IP; HEK-293 cells co-transfected with ABCB4 and the GFP-tagged partner; lysis in 25 mmol/L Tris pH 7.4, 150 mmol/L NaCl, 1 mmol/L EDTA, 1% Triton X-100; anti-GFP or normal mouse IgG on beads, overnight at 4 °C; blot with anti-ABCB4.

Sequences of proteins named here, by UniProt entry; tags and fusion partners are left off. A change or cut given only in a name is not applied to a line headed by its entry. A line that says so, or that is headed by a name, gives the form on record, which may keep a tag or linker.
UniProt Q5VT25: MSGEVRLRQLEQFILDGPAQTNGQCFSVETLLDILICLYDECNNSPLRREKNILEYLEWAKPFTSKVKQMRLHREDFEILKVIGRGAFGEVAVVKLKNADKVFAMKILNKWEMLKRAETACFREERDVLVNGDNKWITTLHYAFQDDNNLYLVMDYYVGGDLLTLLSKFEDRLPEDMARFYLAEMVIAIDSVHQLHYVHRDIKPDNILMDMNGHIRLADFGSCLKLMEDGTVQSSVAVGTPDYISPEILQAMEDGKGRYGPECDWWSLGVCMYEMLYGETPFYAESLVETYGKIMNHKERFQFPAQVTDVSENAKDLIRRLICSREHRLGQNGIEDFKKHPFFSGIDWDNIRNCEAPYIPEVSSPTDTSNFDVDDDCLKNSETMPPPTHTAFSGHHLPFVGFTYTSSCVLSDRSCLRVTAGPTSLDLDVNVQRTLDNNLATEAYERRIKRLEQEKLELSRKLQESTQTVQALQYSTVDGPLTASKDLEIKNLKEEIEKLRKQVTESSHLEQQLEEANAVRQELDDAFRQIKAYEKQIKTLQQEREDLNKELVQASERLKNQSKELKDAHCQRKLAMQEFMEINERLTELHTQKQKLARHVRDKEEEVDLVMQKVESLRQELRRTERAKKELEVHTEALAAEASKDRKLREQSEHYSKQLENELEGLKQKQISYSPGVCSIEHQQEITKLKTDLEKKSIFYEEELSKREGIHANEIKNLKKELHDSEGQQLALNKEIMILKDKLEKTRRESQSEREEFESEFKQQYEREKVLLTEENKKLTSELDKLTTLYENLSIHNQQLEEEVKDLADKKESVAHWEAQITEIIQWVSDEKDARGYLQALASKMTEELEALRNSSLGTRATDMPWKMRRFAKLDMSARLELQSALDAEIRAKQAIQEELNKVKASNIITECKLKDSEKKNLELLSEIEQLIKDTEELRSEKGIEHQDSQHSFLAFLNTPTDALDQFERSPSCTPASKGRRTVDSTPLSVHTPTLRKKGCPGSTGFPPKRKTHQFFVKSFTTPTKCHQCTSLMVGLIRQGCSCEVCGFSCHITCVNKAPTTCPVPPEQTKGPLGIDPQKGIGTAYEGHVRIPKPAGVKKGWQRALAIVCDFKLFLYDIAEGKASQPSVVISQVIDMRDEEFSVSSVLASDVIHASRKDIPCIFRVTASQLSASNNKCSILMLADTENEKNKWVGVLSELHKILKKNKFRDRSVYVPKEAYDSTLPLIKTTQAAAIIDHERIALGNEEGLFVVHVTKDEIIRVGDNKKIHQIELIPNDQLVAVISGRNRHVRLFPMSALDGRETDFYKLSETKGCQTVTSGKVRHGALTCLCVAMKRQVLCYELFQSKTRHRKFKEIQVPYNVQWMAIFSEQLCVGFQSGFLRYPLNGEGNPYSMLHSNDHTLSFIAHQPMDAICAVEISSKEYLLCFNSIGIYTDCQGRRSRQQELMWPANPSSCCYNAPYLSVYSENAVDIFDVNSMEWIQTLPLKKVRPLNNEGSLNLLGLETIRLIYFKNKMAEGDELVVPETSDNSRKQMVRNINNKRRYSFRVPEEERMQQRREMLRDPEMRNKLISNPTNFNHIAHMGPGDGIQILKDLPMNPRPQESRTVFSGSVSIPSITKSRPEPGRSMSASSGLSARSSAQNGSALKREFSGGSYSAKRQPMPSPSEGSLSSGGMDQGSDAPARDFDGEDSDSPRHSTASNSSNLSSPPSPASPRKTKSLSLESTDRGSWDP
human wild type ABCB4 (ABCB4-wt) isoform A (P21439-2, form named): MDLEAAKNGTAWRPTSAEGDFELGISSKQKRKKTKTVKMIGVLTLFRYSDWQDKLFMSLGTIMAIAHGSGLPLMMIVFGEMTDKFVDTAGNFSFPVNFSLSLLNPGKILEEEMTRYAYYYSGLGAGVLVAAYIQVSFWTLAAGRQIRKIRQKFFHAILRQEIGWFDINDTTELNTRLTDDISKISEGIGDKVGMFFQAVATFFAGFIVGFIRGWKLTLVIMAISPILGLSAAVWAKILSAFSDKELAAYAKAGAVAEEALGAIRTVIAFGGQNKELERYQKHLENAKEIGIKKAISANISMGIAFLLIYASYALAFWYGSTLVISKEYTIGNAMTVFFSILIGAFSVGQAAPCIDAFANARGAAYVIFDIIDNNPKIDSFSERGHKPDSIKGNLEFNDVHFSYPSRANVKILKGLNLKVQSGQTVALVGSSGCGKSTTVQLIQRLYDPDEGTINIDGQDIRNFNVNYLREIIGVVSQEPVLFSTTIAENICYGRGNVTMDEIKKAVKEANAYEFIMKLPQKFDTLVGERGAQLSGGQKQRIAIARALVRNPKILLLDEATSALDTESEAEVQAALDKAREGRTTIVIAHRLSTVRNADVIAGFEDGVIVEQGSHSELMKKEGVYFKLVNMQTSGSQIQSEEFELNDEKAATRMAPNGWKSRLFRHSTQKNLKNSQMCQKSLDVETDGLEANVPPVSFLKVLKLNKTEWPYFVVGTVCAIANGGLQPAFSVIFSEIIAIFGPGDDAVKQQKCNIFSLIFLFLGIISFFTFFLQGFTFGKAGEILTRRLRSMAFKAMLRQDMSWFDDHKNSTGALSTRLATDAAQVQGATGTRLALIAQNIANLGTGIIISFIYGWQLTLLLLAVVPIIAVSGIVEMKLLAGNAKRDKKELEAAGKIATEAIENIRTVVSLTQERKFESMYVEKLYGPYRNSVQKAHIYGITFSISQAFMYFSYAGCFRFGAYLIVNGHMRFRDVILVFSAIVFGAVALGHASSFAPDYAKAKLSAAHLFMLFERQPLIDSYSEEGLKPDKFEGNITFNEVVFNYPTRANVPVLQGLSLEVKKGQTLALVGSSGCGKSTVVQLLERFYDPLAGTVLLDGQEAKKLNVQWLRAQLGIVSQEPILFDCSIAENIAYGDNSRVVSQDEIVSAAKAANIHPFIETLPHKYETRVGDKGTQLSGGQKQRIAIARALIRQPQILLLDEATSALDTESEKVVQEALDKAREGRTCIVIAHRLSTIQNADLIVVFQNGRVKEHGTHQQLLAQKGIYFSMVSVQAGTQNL

No constants are given. Whether binding was seen depends on the method and setting. In cells and extracts the contact can be indirect. Some results given as binding are weak or reduced against the parent protein; the word gives no strength.

On to “human wild type ABCB4 (ABCB4-wt) isoform A (from UniProt P21439-2 1-1279)”, for which the binding entry is given as “binds”.

Values taken from article PMC8870398.
